Data from doi:10.1101/2022.05.18.492435.
No constants are given. Whether binding was seen depends on the method and setting. Binding seen in cells or lysates may run through a third protein. Some results given as binding are weak or reduced against the parent protein; the word gives no strength.

The chains behind the UniProt entries cited, without tags or fusion partners.
UniProt Q9BSM1: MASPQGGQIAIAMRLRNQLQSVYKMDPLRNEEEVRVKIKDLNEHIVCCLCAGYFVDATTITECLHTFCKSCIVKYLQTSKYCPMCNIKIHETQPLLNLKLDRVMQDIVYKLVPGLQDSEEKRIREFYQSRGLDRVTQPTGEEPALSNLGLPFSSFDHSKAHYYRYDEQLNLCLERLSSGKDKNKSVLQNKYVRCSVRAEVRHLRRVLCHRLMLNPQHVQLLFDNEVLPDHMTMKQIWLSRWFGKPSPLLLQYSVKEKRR
UniProt P35226: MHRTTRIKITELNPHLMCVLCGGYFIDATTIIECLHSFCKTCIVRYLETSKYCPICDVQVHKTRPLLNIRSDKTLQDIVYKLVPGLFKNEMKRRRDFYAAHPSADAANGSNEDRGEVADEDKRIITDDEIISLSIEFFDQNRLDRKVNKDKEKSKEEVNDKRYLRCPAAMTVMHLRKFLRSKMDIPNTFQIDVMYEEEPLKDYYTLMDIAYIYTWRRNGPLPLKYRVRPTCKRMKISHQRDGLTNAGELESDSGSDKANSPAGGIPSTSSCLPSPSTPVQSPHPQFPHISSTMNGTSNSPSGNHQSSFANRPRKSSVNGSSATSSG
UniProt Q6W2J9: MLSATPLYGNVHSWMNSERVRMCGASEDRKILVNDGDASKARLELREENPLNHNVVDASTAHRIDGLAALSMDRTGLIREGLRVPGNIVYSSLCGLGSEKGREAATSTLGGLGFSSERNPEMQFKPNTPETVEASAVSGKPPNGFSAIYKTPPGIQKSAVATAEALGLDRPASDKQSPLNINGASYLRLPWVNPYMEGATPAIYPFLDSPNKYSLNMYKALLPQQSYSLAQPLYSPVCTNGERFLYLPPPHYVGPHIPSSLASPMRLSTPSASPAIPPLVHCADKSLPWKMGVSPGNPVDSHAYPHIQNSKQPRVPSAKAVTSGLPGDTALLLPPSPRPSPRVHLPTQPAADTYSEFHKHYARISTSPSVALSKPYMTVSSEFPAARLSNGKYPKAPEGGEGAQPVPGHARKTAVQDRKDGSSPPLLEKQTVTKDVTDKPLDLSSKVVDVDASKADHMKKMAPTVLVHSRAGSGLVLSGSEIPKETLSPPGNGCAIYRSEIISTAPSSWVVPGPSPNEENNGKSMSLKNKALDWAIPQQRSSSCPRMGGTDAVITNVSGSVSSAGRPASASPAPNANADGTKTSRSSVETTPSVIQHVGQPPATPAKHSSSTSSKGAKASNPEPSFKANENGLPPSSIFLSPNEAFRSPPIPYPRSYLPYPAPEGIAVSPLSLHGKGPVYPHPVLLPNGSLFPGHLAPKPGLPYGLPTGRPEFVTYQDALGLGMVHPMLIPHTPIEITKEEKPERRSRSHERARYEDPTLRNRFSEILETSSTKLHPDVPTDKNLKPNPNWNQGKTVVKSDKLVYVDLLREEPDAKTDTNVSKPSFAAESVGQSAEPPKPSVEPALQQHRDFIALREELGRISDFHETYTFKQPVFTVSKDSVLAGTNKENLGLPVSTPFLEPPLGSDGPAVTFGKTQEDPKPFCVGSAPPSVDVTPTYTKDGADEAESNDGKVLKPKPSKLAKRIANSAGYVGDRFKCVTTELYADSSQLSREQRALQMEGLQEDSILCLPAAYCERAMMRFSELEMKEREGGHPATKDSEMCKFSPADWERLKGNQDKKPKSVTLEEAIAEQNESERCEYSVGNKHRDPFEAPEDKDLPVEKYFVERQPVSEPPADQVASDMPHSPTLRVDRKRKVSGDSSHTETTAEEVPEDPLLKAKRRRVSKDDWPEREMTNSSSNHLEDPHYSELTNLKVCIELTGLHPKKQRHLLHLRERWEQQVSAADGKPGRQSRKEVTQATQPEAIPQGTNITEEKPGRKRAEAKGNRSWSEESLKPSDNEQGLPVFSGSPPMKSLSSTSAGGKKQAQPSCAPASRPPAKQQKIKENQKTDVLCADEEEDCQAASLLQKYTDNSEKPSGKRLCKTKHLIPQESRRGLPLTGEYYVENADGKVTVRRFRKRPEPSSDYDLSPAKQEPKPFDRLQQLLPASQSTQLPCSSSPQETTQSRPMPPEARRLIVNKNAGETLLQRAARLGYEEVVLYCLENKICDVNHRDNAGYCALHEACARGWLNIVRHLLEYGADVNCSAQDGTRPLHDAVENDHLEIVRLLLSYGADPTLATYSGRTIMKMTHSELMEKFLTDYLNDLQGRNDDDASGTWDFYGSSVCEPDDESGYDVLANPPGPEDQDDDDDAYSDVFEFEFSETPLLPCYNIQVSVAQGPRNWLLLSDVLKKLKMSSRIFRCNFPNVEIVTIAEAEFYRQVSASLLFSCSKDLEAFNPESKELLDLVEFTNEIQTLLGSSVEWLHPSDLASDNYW
UniProt Q06587: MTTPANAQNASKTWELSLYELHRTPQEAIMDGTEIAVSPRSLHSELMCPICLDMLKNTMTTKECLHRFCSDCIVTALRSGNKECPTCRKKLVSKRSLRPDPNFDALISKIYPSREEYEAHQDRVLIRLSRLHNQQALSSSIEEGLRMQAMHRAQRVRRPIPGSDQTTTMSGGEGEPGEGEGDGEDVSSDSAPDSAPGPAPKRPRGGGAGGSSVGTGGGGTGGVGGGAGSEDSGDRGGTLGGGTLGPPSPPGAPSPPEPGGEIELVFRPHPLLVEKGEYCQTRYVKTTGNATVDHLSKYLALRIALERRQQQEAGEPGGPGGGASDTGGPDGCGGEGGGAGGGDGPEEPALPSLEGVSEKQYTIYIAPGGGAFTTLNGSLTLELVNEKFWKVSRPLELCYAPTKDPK
UniProt Q99496: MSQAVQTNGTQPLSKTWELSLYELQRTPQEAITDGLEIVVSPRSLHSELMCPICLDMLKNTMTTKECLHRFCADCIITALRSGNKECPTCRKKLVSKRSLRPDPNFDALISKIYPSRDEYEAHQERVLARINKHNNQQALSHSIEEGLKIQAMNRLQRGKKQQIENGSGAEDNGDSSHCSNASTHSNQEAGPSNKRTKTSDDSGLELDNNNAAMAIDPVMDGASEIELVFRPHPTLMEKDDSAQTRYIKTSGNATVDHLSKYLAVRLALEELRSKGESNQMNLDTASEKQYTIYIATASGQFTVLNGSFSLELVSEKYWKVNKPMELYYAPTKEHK

How the values were obtained:
Assay in all cases: co-IP
[1] = molecular target: PCGF1 (human (endogenous in NT2)) (UniProt Q9BSM1)
[2] = molecular target: T1, PCGF2 (human (endogenous in NT2)) (UniProt P35227)
T1 sequence: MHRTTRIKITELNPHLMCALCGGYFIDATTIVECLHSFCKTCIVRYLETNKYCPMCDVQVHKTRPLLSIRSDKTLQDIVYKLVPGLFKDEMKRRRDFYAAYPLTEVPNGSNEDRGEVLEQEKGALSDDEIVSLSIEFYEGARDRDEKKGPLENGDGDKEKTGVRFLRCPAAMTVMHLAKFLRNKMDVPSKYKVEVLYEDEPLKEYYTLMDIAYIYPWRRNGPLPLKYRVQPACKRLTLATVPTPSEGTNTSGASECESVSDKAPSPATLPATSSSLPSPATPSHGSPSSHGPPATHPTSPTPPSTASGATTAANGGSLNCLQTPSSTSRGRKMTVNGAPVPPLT

[3] = molecular target: PCGF4 (human (endogenous in NT2)) (UniProt P35226)

Substance | binding [1] | binding [2] | binding [3]
BCOR (from UniProt Q6W2J9 1-1755) | binds |  | 
RING1A (from UniProt Q06587 1-406) | binds | binds | binds
RNF2 (from UniProt Q99496 1-336) |  | binds | 
